The target in this assay is T1, mini-Cubn-Myc (Drosophila melanogaster) (UniProt Q9W332).
T1 sequence: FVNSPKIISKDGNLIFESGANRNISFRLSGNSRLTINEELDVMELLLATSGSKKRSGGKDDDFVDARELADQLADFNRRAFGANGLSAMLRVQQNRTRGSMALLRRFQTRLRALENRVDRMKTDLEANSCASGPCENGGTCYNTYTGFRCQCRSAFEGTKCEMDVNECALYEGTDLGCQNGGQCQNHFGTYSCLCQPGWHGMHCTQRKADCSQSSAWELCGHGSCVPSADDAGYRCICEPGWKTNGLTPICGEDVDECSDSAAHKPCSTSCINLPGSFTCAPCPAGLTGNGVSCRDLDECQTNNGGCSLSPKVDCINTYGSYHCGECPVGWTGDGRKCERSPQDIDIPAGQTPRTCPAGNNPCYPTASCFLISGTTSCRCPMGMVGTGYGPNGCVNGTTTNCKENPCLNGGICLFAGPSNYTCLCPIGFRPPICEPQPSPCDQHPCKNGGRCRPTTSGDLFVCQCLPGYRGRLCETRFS
The assay is described as follows: co-IP; lysate of 80 salivary glands co-expressing mini-Cubn2-HA, mini-Cubn-Myc and Amnionless-V5; mouse anti-Myc on Protein G Dynabeads, overnight at 4°C; lysis buffer 150 mM NaCl, 50 mM Tris-HCl pH 7.5, 1 mM EDTA, 1% Triton X-100, 1 mM DTT; three washes; blots with anti-HA, anti-V5, anti-Myc; control with unspecific rabbit IgGs.

Results are given in words; binding and its absence hold for the method and conditions named. In cells and extracts the contact can be indirect. Some entries that bind do so weakly or less than the wild type. Sequences can lack the tags named with a protein.

B1: Amnionless-V5 (protein, UniProt Q9VPN2 21-505)
chain: TKWYGGGMDFNDPTAWLDDHLPCAQDLVVFPEYYPALLPLPEDISIDGLVFPREGAILLAEESTITFGSDKQPSCESDENKAYLKPPKSSKWFDPGTWTDKSKEFSTFTPELERIPCDDEQVIIKGHGPLAFDLENVQYLRLGQLILAGSSISKTYLEQLISRDLGQFLFYNAEYVQVEYYRGELCGCHKDFERLLEPVCHNVQEQCETPHCLSPVRPLGSCCLICGAILSTPTTHCTEGSRKELVAQISNLISQESLKDQIGLHVEFVGSQKFGNCLQAVVTDRHKYSERSLEFLQQNEHNWNKTGTTLKVSGRPYNPNVSFSSIVLILFCMALVGLVSVVILAHFMPENPYLNRIPQWIHDPRLWRWRHLGLRLRRNLLFNRFDNGGAEGGSSEGGASGVDRLGIMAYDPESGEVRERAFDNPMFEQGGALEEAAKESQEQDEILSVPKMETGDLDARSVVDEQELTEINLETCEADTDEETI
As for B1, the binding result is “binds”.

Source of the values: publication PMC8710305.
